According to article PMC11705640, “Tubulointerstitial nephritis antigen-like 1 promotes the progression of liver fibrosis after HCV eradication with direct-acting antivirals” (International Journal of Biological Sciences, 2025):
Results are given in words; binding and its absence hold for the method and conditions named. In cells and extracts the contact can be indirect. A result given as binding can be weak or reduced; the word gives no strength. Sequences can lack the tags named with a protein.

Protein sequences, listed by entry. Tags and fused reporters are not part of them. Lines headed by an entry give the natural chain unless they say otherwise; changes in a name come on top.
UniProt P01127: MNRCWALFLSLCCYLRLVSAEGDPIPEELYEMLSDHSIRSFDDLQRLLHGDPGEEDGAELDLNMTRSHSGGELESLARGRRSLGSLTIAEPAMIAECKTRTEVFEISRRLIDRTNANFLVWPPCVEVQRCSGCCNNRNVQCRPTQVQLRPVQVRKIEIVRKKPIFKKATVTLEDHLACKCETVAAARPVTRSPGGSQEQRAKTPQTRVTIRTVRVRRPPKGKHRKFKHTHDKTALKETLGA

Tests used:
[1] = target: T1, TINAGL1-Flag (full-length, Flag-tagged human TINAGL1 in pcDNA3.1+) (human) (UniProt Q9GZM7); assay: co-IP; HEK293T cells co-transfected with TINAGL1-Flag and PDGF-BB-HA; IP lysis buffer; HA or Flag magnetic beads overnight at 4°C; Western blot with anti-HA and anti-Flag
T1 sequence: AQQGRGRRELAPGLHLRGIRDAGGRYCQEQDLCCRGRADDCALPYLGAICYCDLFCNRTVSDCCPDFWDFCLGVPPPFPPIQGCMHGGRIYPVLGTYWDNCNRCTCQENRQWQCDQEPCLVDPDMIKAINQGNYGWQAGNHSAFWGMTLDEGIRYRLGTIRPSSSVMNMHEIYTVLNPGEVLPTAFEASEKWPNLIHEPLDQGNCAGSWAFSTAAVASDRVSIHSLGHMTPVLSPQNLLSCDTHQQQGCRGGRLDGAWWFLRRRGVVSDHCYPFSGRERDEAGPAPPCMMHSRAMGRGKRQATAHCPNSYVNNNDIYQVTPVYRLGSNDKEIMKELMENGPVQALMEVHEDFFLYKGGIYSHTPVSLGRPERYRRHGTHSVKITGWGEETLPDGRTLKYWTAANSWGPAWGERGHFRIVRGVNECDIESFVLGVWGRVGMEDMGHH

[2] = target: T1, TINAGL1-Flag (full-length, Flag-tagged human TINAGL1 in pcDNA3.1+) (human); assay: co-IP; Huh7.5 cells co-transfected with TINAGL1-Flag and PDGF-BB-HA; IP lysis buffer; HA or Flag magnetic beads overnight at 4°C; Western blot with anti-HA and anti-Flag

binding [1]: binds
binding [2]: binds
Substance: PDGF-BB-HA (full-length human PDGFB cDNA with HA-tag) (from UniProt P01127) (ligand)
